These are yes or no findings as the source states them, for the method shown. In cells and extracts the contact can be indirect. Some results given as binding are weak or reduced against the parent protein; the word gives no strength. Where a sequence is shown, tags or fusion partners need not be part of it.
Molecular target: HA-HIF-1α (UniProt Q16665)
Assay: co-IP; A549 cells transfected with HA-HIF-1α and Flag-ZNF91 plasmids; precipitation of either Flag-ZNF91 or HA-HIF-1α; with and without CuB (cucurbitacin B), which attenuated the interaction

The chains behind the UniProt entries cited, without tags or fusion partners.
UniProt Q16665: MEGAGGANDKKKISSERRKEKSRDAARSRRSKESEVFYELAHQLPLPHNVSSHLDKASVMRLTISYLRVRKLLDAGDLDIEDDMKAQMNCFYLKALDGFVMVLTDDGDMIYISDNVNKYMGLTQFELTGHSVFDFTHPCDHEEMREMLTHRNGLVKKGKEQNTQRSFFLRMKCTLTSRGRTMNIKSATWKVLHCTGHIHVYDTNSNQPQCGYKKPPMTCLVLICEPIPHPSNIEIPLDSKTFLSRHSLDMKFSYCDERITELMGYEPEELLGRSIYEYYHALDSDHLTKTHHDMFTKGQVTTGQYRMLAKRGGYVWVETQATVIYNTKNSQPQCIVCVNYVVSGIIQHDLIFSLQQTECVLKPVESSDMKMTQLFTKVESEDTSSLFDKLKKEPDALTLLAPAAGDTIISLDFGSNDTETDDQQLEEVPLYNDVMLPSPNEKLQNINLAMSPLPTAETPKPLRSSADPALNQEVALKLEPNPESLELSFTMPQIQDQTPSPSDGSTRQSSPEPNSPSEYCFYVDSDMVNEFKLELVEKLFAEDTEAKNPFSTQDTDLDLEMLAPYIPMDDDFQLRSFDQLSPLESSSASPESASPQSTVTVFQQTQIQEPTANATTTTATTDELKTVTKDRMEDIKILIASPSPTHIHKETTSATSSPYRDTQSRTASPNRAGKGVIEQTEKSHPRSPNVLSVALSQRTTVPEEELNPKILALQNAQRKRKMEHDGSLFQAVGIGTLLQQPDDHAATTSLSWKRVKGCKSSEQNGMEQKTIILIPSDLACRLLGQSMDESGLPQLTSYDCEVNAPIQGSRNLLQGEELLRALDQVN

- binding: binds
B1: Flag-ZFP91 (protein, UniProt Q96JP5 1-570)
chain: MPGETEEPRPPEQQDQEGGEAAKAAPEEPQQRPPEAVAAAPAGTTSSRVLRGGRDRGRAAAAAAAAAVSRRRKAEYPRRRRSSPSARPPDVPGQQPQAAKSPSPVQGKKSPRLLCIEKVTTDKDPKEEKEEEDDSALPQEVSIAASRPSRGWRSSRTSVSRHRDTENTRSSRSKTGSLQLICKSEPNTDQLDYDVGEEHQSPGGISSEEEEEEEEEMLISEEEIPFKDDPRDETYKPHLERETPKPRRKSGKVKEEKEKKEIKVEVEVEVKEEENEIREDEEPPRKRGRRRKDDKSPRLPKRRKKPPIQYVRCEMEGCGTVLAHPRYLQHHIKYQHLLKKKYVCPHPSCGRLFRLQKQLLRHAKHHTDQRDYICEYCARAFKSSHNLAVHRMIHTGEKPLQCEICGFTCRQKASLNWHMKKHDADSFYQFSCNICGKKFEKKDSVVAHKAKSHPEVLIAEALAANAGALITSTDILGTNPESLTQPSDGQGLPLLPEPLGNSTSGECLLLEAEGMSKSYCSGTERVSLMADGKIFVGSGSSGGTEGLVMNSDILGATTEVLIEDSDSAGP
